Source: article PMC2632887
Results are given in words; binding and its absence hold for the method and conditions named. Binding seen in cells or lysates may run through a third protein.

Amino acid sequences for entries named in this document (tags omitted). A change or cut given only in a name is not applied to a line headed by its entry.
UniProt Q04206: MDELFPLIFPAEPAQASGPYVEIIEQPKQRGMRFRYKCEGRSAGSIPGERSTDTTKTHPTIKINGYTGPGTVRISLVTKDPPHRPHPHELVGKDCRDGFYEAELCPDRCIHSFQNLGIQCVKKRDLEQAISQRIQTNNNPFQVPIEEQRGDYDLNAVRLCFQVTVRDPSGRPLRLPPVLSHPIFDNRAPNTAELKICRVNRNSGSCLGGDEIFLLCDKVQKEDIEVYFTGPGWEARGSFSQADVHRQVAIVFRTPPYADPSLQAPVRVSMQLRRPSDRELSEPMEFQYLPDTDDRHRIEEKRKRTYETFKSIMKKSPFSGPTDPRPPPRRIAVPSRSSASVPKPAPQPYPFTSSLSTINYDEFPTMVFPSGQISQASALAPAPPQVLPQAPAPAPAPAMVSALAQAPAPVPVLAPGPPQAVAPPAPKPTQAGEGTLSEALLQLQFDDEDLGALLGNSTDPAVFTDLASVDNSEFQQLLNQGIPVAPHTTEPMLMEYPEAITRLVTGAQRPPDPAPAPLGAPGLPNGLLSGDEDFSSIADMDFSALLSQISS
UniProt Q92793: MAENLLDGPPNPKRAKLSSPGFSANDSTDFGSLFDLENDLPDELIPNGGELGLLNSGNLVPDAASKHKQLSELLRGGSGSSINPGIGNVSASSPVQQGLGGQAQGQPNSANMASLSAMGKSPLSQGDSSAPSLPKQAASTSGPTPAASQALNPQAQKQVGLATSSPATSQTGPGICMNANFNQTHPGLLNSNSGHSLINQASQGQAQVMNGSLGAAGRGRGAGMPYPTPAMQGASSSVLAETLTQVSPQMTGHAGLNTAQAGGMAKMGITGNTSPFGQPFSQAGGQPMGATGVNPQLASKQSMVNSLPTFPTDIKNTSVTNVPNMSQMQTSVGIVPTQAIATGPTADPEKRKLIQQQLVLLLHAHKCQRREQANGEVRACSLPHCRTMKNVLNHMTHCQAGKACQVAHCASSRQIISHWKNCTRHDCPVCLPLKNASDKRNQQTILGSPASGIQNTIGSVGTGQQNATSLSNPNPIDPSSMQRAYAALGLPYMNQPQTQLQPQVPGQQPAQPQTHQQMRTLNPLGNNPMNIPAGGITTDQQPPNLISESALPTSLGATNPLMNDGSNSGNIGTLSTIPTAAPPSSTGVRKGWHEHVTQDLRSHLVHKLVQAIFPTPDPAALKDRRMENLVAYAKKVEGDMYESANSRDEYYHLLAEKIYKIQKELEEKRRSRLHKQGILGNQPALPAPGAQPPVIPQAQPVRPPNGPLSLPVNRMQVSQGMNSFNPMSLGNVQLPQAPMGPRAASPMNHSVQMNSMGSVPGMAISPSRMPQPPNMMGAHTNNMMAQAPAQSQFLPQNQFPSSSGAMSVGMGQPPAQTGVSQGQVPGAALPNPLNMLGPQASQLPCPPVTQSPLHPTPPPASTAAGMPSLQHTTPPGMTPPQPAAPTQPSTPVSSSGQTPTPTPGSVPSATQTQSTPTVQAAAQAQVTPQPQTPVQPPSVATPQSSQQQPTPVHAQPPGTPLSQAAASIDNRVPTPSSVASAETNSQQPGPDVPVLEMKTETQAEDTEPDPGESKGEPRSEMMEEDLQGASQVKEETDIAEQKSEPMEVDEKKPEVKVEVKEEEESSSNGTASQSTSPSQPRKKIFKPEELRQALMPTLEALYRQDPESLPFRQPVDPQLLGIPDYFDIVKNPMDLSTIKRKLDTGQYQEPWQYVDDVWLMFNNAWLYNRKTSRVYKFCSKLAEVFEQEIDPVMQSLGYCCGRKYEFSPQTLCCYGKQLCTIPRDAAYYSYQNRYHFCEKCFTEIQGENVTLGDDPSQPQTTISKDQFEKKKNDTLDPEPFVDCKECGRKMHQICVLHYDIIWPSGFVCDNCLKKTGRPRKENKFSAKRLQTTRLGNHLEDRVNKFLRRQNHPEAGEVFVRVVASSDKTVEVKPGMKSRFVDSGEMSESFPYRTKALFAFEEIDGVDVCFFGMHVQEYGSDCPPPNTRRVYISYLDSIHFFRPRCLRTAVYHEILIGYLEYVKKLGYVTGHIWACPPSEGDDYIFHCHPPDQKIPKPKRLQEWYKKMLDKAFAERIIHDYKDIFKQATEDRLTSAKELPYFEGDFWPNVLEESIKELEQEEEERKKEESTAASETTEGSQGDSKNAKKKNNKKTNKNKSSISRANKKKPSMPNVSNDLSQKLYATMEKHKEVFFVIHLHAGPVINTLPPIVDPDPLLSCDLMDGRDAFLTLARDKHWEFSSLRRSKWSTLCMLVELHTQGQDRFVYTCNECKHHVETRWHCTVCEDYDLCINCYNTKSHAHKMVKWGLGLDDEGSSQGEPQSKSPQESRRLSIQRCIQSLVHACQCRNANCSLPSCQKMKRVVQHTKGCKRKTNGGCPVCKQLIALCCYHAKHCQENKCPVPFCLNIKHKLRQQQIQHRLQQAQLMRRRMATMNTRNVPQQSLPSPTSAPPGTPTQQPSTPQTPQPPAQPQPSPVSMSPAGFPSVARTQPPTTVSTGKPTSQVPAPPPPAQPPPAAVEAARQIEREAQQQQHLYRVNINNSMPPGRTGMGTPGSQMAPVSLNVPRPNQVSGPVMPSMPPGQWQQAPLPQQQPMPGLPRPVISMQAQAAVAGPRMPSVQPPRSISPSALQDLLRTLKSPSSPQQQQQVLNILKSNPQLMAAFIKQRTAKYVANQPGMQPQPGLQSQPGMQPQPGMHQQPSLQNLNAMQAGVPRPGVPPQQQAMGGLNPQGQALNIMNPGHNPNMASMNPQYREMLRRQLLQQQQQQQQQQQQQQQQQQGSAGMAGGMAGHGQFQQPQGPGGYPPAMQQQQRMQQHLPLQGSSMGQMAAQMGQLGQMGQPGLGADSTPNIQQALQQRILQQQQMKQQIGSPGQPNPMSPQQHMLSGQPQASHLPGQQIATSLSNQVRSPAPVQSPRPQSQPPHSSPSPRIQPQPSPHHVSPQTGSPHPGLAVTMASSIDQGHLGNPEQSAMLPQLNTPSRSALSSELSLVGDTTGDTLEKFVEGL

What was measured:
S276C His-p65 mutant = S276C His-p65 mutant (UniProt Q04206); experiment: co-IP; anti-His-Tag antibody and protein A agarose on lysate of transfected human lung fibroblasts treated with IL-1β (20 U/ml); co-immunoprecipitation buffer 200 mM NaCl, 20 mM Tris-HCl pH 7.5, 1% Triton X-100, 1 mM DTT; overnight at 4°C; immunoblot with anti-p65 and anti-CBP
[1] = target: His-p65 (full-length NF-κB p65 subunit fused to an N-terminal histidine tag) (UniProt Q04206); experiment: condition: only cells pre-incubated with SB202190 (3.5 µM) and PD98059 (20 µM); co-IP; as a1, but cells pre-incubated for 1 h with SB202190 (3.5 µM) and PD98059 (20 µM) before IL-1β (20 U/ml)
[2] = target: His-p65 (full-length NF-κB p65 subunit fused to an N-terminal histidine tag) (UniProt Q04206); experiment: condition: only cells pre-incubated with H89 (10 µM); co-IP; as a1, but cells pre-incubated for 1 h with the MSK1-PKA inhibitor H89 (10 µM) before IL-1β (20 U/ml)

binding (S276C His-p65 mutant): no binding
binding [1]: no binding
binding [2]: no binding
Substance: CBP (CREB-Binding Protein) (from UniProt Q92793 1-2442)
